These are yes or no findings as the source states them, for the method shown. For some assays here: In cells and extracts the contact can be indirect. For some assays here: Tags and fused reporters may be left off the sequences shown.
Legend:
[1] = molecular target: cCFP-AtBS14b (Arabidopsis thaliana); assay: split reporter; split GFP assay: X-nYFP and cCFP-AtBS14b co-expressed transiently in N. benthamiana leaves by Agrobacterium infiltration; YFP fluorescence by confocal microscopy after 36 to 48 hours
[2] = molecular target: AtBS14b in Cub vector pMETYC_GW (Arabidopsis thaliana); assay: two-hybrid; mating-based split-ubiquitin assay in yeast; MSBP1, BAK1, BRI1 in Nub vector pXN25_GW, AtBS14b in Cub vector pMETYC_GW; yeast growth assay; NubWT and NubG as positive and negative control

Binder | binding [1] | binding [2]
BAK1-nYFP (receptor, UniProt Q94F62 26-615) NAEGDALSALKNSLADPNKVLQSWDATLVTPCTWFHVTCNSDNSVTRVDLGNANLSGQLVMQLGQLPNLQYLELYSNNITGTIPEQLGNLTELVSLDLYLNNLSGPIPSTLGRLKKLRFLRLNNNSLSGEIPRSLTAVLTLQVLDLSNNPLTGDIPVNGSFSLFTPISFANTKLTPLPASPPPPISPTPPSPAGSNRITGAIAGGVAAGAALLFAVPAIALAWWRRKKPQDHFFDVPAEEDPEVHLGQLKRFSLRELQVASDNFSNKNILGRGGFGKVYKGRLADGTLVAVKRLKEERTQGGELQFQTEVEMISMAVHRNLLRLRGFCMTPTERLLVYPYMANGSVASCLRERPESQPPLDWPKRQRIALGSARGLAYLHDHCDPKIIHRDVKAANILLDEEFEAVVGDFGLAKLMDYKDTHVTTAVRGTIGHIAPEYLSTGKSSEKTDVFGYGVMLLELITGQRAFDLARLANDDDVMLLDWVKGLLKEKKLEALVDVDLQGNYKDEEVEQLIQVALLCTQSSPMERPKMSEVVRMLEGDGLAERWEEWQKEEMFRQDFNYPTHHPAVSGWIIGDSTSQIENEYPSGPR | no binding | 
BAK1 in Nub vector pXN25_GW (receptor, UniProt Q94F62 26-615) NAEGDALSALKNSLADPNKVLQSWDATLVTPCTWFHVTCNSDNSVTRVDLGNANLSGQLVMQLGQLPNLQYLELYSNNITGTIPEQLGNLTELVSLDLYLNNLSGPIPSTLGRLKKLRFLRLNNNSLSGEIPRSLTAVLTLQVLDLSNNPLTGDIPVNGSFSLFTPISFANTKLTPLPASPPPPISPTPPSPAGSNRITGAIAGGVAAGAALLFAVPAIALAWWRRKKPQDHFFDVPAEEDPEVHLGQLKRFSLRELQVASDNFSNKNILGRGGFGKVYKGRLADGTLVAVKRLKEERTQGGELQFQTEVEMISMAVHRNLLRLRGFCMTPTERLLVYPYMANGSVASCLRERPESQPPLDWPKRQRIALGSARGLAYLHDHCDPKIIHRDVKAANILLDEEFEAVVGDFGLAKLMDYKDTHVTTAVRGTIGHIAPEYLSTGKSSEKTDVFGYGVMLLELITGQRAFDLARLANDDDVMLLDWVKGLLKEKKLEALVDVDLQGNYKDEEVEQLIQVALLCTQSSPMERPKMSEVVRMLEGDGLAERWEEWQKEEMFRQDFNYPTHHPAVSGWIIGDSTSQIENEYPSGPR |  | no binding

— article PMC5430330
